A short description of this assay: qHTS Assay for Lipid Storage Modulators in Drosophila S3 Cells.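 For cell number change: cells counted by Cell Tracker Red CMTPX staining in the red channel.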 The settings on record: BODIPY lipid droplet fluorescence, 18-24 h; for cell number change: measured here: cell count max response, cells fed with added oleic acid. The method, boiled down:
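Drosophila S3 cells got compounds at several concentrations plus oleic acid (400 uM solution). Laser-scanning cytometry with 488 nm excitation read lipid droplets at 500-530 nm and cells at 575-640 nm. Percent activity was relative to 20 uM Triacsin C.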
(Quantitative high-throughput screening tests each substance at several concentrations.)

[1] abbreviates: measured here: lipid fluorescence (Fed channel) AC50, cells fed with added oleic acid.
Where [2] appears, read: measured here: cell number channel AC50, cells fed with added oleic acid.

The other results are listed elsewhere or left out. Shown are side measurements of this screen, not its main read-out; they come without a call. The list favours compounds with an active or inconclusive main result. Potencies come from curve fits of mixed quality, noted in brackets.

With `COCCNC(=S)N/N=C(\C)c1ccc(Cl)s1`, the cell number change was -11%.
With `COc1ccc(CNC(=O)CN(C)S(=O)(=O)c2ccc3c(c2)OCCO3)cc1OC`, the cell number change turned out to be 3.19%. Under setting [1], the AC50 (as a rule, the concentration giving half of the maximal activity seen) is 20.6 µM [rising, single point].
For `COc1ccc(CN(C)C(=O)c2cc(-c3ccccc3)nc3ccc(C)cc23)c(OC)c1OC`, the cell number change is -1.45%. Under setting [1], the AC50 is 20.6 µM [falling, single point].
On to `Cc1ccc(-c2nc(NC(=O)CSc3ccc4ccccc4n3)ns2)cc1`, for which the cell number change was -47.1%. Under setting [2], the AC50 was 29.1 µM [falling, single point]. Also, the half-maximal activity concentration (AC50) under setting [1] is 20.6 µM [falling, single point].
Turning to `O=C(COC(=O)c1nsc(Cl)c1Cl)NC1CCCCC1`, the cell number change worked out at 3.81%.
Consider `Cc1csc(Nc2cccc3ccccc23)n1`, for which the cell number change was determined as 22.1%.
Consider `Cc1cc(C(=O)CCl)c(C)n1-c1ccon1`, for which the cell number change was -32.1%. The AC50 under setting [1] is 16.4 µM [falling, partial curve].
`OC1C[N+]2(CCCCC2)C1`: the cell number change was -92.3%. In addition, the AC50 under setting [2] is 25.9 µM [falling, partial curve]. Further, the half-maximal activity concentration (AC50) under setting [1] is 3.66 µM [falling, full curve].
For the molecule `CC(=O)Nc1cc(NC(C)=O)cc(C(=O)OCC(=O)c2ccc3c(c2)OCO3)c1`, the cell number change was 50.7%. Under setting [2], the concentration at half-maximal activity (AC50) is 29.1 µM [rising, single point].
Consider `COC(=O)c1cc(NC(=O)/C=C/c2ccccc2)ccc1O`, for which the cell number change was -18.7%. Also, the AC50 under setting [1] was 18.4 µM [falling, single point].
On to `OCCN1CCN(c2cc(-c3ccccc3)c3ccccc3n2)CC1`, for which the cell number change was -2.12%.
In the case of `O=C(COc1ccc(Cl)cc1)Nc1ccc2c(c1)OCO2`, the cell number change came out at 40.8%. Besides, under setting [2], the half-maximal activity concentration (AC50) was 0.146 µM [rising, full curve, poor fit].
Take `O=[N+]([O-])c1ccc(Cl)c(-c2ccc(/C=N/n3cnnc3)o2)c1`: the cell number change is 2.11%. The half-maximal activity concentration (AC50) under setting [1] is 5.8 µM [falling, single point].
Consider `O=C(NCCN1CCCCC1)c1c(O)c2ccccc2[nH]c1=O`, for which the cell number change was -34.8%. In addition, the AC50 under setting [2] was 29.1 µM [falling, single point]. Further, the concentration at half-maximal activity (AC50) under setting [1] was 6.51 µM [falling, partial curve].
Take `CC(C)(C)C(=O)c1cnc(Nc2ccccc2Cl)s1`: the cell number change is -11%. For the same molecule, under setting [1], the AC50 is 6.51 µM [rising, single point].
Consider `Cc1cccc(CSCCNC(=O)COc2ccc(Cl)cc2)c1`, for which the cell number change was 6.77%. For the same molecule, under setting [1], the AC50 was 16.4 µM [rising, partial curve, poor fit].
Turning to `CCCCOC(=O)c1cc(=O)[nH]c2ccc(C)cc12`, the cell number change amounted to 1.59%.
Regarding `CCCCCCCCCCCC(=O)NC(C(=O)OCC)C(O)c1cccc([N+](=O)[O-])c1` (stereo not given), the cell number change amounted to 23.9%. Also, the AC50 under setting [1] is 18.4 µM [falling, single point].
Turning to `CC(=O)c1cnn(-c2ccccc2)c1C`, the cell number change was found to be 28.5%. In addition, the AC50 under setting [1] was 10.3 µM [rising, single point].
As to `COc1cc(OC)nc(/N=C/N(C)C)n1`, the cell number change is -17.2%. Also, the AC50 under setting [1] was 0.00461 µM [rising, full curve, poor fit].
As for `COc1ccc(C(C)=O)cc1CSc1nnc(C)s1`, the cell number change turned out to be 112%. Moreover, the AC50 under setting [2] was 7.31 µM [rising, partial curve]. The concentration at half-maximal activity (AC50) under setting [1] is 4.61 µM [rising, full curve, poor fit].
For `Cc1cc(C(=O)OCC(=O)Nc2cccc(S(N)(=O)=O)c2)c2ccccc2n1`, the cell number change is -38.6%. Under setting [2], the half-maximal activity concentration (AC50) is 2.91 µM [falling, full curve]. Further, the AC50 under setting [1] was 6.51 µM [falling, full curve].
With `CCc1cc(C(=O)N2CCCC(C(=O)c3cccc(OC(C)C)c3)C2)n(C)n1` (stereo not given), the cell number change was -47.6%. Also, under setting [2], the half-maximal activity concentration (AC50) was 5.17 µM [falling, partial curve, poor fit]. Besides, the AC50 under setting [1] was 0.259 µM [falling, partial curve, poor fit].
As for `CC(C)C[C@H](N)c1nnc(S(=O)(=O)Cc2ccc(F)cc2)o1`, the cell number change is -76.6%. Also, under setting [2], the AC50 is 7.31 µM [falling, partial curve]. The AC50 under setting [1] is 5.8 µM [falling, full curve].
With `CC1CCN(c2oc(Cc3cccc4ccccc34)nc2C#N)CC1`, the cell number change is 42.9%. In addition, the half-maximal activity concentration (AC50) under setting [2] was 5.8 µM [rising, partial curve]. In addition, the half-maximal activity concentration (AC50) under setting [1] is 3.26 µM [rising, partial curve].
With `CCOC(=O)C1=C(C)NC(=O)NC1c1c(C)nn(-c2ccccc2)c1Cl` (stereo not given), the cell number change is -13.9%. The half-maximal activity concentration (AC50) under setting [1] is 5.8 µM [rising, full curve, poor fit].
Regarding `O=C(CN1C(=O)C(=O)c2ccccc21)c1ccc(Cl)cc1`, the cell number change is -15.1%. For the same molecule, the AC50 under setting [1] was 18.4 µM [falling, partial curve, poor fit].
Take `COc1ccc(S(=O)(=O)N2CCN(CC(=O)N3CCc4ccccc4C3)CC2)cc1OC`: the cell number change was determined as 8.36%. Besides, the concentration at half-maximal activity (AC50) under setting [1] is 5.17 µM [falling, full curve, poor fit].
As to `Cc1ccccc1-n1c(C)nnc1SCC(=O)NCC1CCCO1` (stereo not given), the cell number change stood at 34.4%. Also, the concentration at half-maximal activity (AC50) under setting [2] was 29.1 µM [rising, single point].
On to `O=C1OCCC1Sc1nnc(-c2ccc(F)cc2)n1Cc1ccccc1` (stereo not given), for which the cell number change was found to be 2.95%. The AC50 under setting [2] is 0.731 µM [falling, partial curve, poor fit]. Further, the AC50 under setting [1] was 16.4 µM [falling, partial curve, poor fit].
With `COc1ccccc1/C=C/C=C1N=C(/C=C/c2ccc(Cl)cc2)OC/1=O`, the cell number change turned out to be 7.14%. Also, the AC50 under setting [1] is 0.00461 µM [falling, full curve, poor fit].
Regarding `COc1ccc(-c2cc(C(=O)Nc3cnn(Cc4ccccc4C)c3)no2)cc1OC`, the cell number change was -137%. For the same molecule, the concentration at half-maximal activity (AC50) under setting [2] is 23.1 µM [falling, partial curve].
For `Cc1cc(C)n(-c2nc3ccccc3n3nnnc23)n1`, the cell number change was 2.97%. Besides, under setting [1], the AC50 is 0.58 µM [rising, single point].
For `Cc1ccc(CNC(=O)Nc2ccc(C)cc2)cc1`, the cell number change worked out at 30.1%.
Take `CN(CC(=O)Nc1ccc(F)c(F)c1F)C(=O)C1=NN(c2ccccc2)C(=O)CC1`: the cell number change stood at 41.2%. For the same molecule, under setting [2], the AC50 was 13 µM [rising, single point]. Moreover, under setting [1], the AC50 was 10.3 µM [rising, partial curve].
`CCC1CCCCN1C(=O)CSc1nnc(-c2c[nH]c3ccccc23)o1` (stereo not given): the cell number change was -26.7%. In addition, under setting [2], the AC50 is 0.651 µM [falling, full curve, poor fit]. The AC50 under setting [1] was 10.3 µM [falling, partial curve, poor fit].
In the case of `COc1ccccc1C1CC(=O)Nc2cc(C)c(C)cc21` (stereo not given), the cell number change was -7.3%.
For the molecule `COc1ccc(C2NC(=O)NC(C)=C2C(=O)Nc2cc(C)ccc2C)cc1OC` (stereo not given), the cell number change was 6.61%. The concentration at half-maximal activity (AC50) under setting [1] is 6.51 µM [rising, single point].

(Values after PubChem BioAssay AID2685 (National Center for Advancing Translational Sciences (NCATS), 2010).)
